Data source: PubChem BioAssay AID504774 (Drosophila RNAi Screening Center, 2011)
The deposit covers about 23,000 reagents; below is a random part of those that have a named target and a result. 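Values are quantile-normalised luminescence on an arbitrary scale; higher means more cells surviving MMS.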 A plus sign joins genes that one reagent is predicted to hit.

Screen: 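Knock-downs that shift viability of MMS-exposed cells relative to untreated ones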 (primary screen)
Cells: Drosophila Kc167 cells
Knock-down reagent: long dsRNA against Drosophila genes, about 0.25 µg dsRNA per well
Duration: about 6 days: 3 days knock-down, then 3 days with or without MMS
Treatment: methyl methanesulphonate 0.004% (w/v) for 3 days after knock-down
Read-out: 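ATP-dependent luminescence as a measure of live cells in MMS-exposed wells, quantile normalised within each plate, with replicate values also given as a mean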
Direction: mean viability with MMS and viability with MMS: higher = more surviving cells after MMS

mean viability with MMS,"viability with MMS, replicate 1","viability with MMS, replicate 2",Target gene,amplicon
3.51e6,4.14e6,3.83e6,CG15083 (GeneID 37175),DRSC06514
3.67e6,3.46e6,3.46e6,bs (GeneID 37890),DRSC04676
2.57e6,2.90e6,2.72e6,bs (GeneID 37890),DRSC23068
3.79e6,4.11e6,4.36e6,CG34047 (retired record) (GeneID 3885666),DRSC07857
3.58e6,4.00e6,4.12e6,CG34047 (retired record) (GeneID 3885666),DRSC21689
3.01e6,3.75e6,3.66e6,His-Psi:CR31616 + His-Psi:CR31615,DRSC03760
3.38e6,3.79e6,3.85e6,CG32248 (GeneID 317938),DRSC08102
3.56e6,4.01e6,4.08e6,CG4049 (GeneID 37860),DRSC04443
3.57e6,4.06e6,4.04e6,Fit1 (GeneID 38488),DRSC08450
3.67e6,4.18e6,4.17e6,CG2656 (GeneID 40857),DRSC12584
3.68e6,4.20e6,4.12e6,pirk (GeneID 37468),DRSC04269
3.59e6,4.03e6,4.08e6,t (GeneID 31863),DRSC17815
3.51e6,3.97e6,4.00e6,Ugt49C1 (GeneID 37421),DRSC04252
3.57e6,4.15e6,3.95e6,Spn47C (GeneID 36163),DRSC07030
3.62e6,4.12e6,4.12e6,mRpS7 (GeneID 34412),DRSC02814
3.45e6,3.93e6,3.91e6,trpl (GeneID 36003),DRSC06728
3.44e6,3.72e6,4.10e6,trpl (GeneID 36003),DRSC06729
3.61e6,4.13e6,4.08e6,Tango9 (GeneID 41450),DRSC14173
3.54e6,3.94e6,4.09e6,Tango11 (GeneID 246596),DRSC03890
3.36e6,3.82e6,3.84e6,Tango11 (GeneID 246596),DRSC03892
3.58e6,3.80e6,4.35e6,TM9SF4 (GeneID 34778),DRSC01888
3.61e6,4.04e6,4.15e6,TM9SF4 (GeneID 34778),DRSC02537
3.53e6,4.00e6,4.01e6,Or56a (GeneID 37269),DRSC07495
3.63e6,4.18e6,4.03e6,Amun (GeneID 32123),DRSC19847
3.75e6,4.30e6,4.14e6,mthl4 (GeneID 36960),DRSC06998
3.73e6,4.10e6,4.35e6,ImpE1 (GeneID 45879),DRSC11195
3.47e6,3.91e6,3.97e6,ImpE1 (GeneID 45879),DRSC11196
3.68e6,4.21e6,4.04e6,CG9445 (GeneID 50147),DRSC05006
3.03e6,3.44e6,3.28e6,dbr (GeneID 33161),DRSC00274
3.51e6,3.91e6,4.04e6,CG9536 (GeneID 33904),DRSC03254
3.77e6,4.30e6,4.15e6,CG43896 (GeneID 39360),DRSC10754

An excerpt from above, limited to “viability with MMS, replicate 2”:
His-Psi:CR31616 + His-Psi:CR31615 [DRSC03760]	3.66e6
CG32248 (GeneID 317938) [DRSC08102]	3.85e6
CG4049 (GeneID 37860) [DRSC04443]	4.08e6
Fit1 (GeneID 38488) [DRSC08450]	4.04e6
CG2656 (GeneID 40857) [DRSC12584]	4.17e6
pirk (GeneID 37468) [DRSC04269]	4.12e6
t (GeneID 31863) [DRSC17815]	4.08e6
Ugt49C1 (GeneID 37421) [DRSC04252]	4.00e6
Spn47C (GeneID 36163) [DRSC07030]	3.95e6

Further results follow:
mean viability with MMS,"viability with MMS, replicate 1","viability with MMS, replicate 2",Target gene,amplicon
3.73e6,4.12e6,4.24e6,CG32536 + CG32537,DRSC20074
3.45e6,4.01e6,3.81e6,ppk7 (GeneID 33886),DRSC03236
3.52e6,3.95e6,4.01e6,Fnta (GeneID 33682),DRSC00557
3.54e6,4.27e6,3.78e6,Ror (GeneID 34367),DRSC03414
3.70e6,4.06e6,4.36e6,RIC-3 (GeneID 37384),DRSC04243
3.39e6,3.76e6,3.87e6,RIC-3 (GeneID 37384),DRSC04543
3.49e6,3.94e6,3.99e6,CG5697 (GeneID 42483),DRSC15858
2.68e6,3.32e6,3.36e6,Gclc (GeneID 53581),DRSC18666
3.58e6,4.01e6,4.08e6,mthl13 (GeneID 246395),DRSC05238
3.61e6,4.13e6,4.05e6,l(2)34Fc (GeneID 34838),DRSC01910
3.41e6,3.91e6,3.85e6,CG1288 (GeneID 40865),DRSC12538
3.68e6,4.22e6,4.13e6,Bmcp (GeneID 39322),DRSC10808
3.65e6,4.12e6,4.13e6,Cpr73D (GeneID 39897),DRSC11084
3.64e6,4.03e6,4.22e6,Pus1 (GeneID 42440),DRSC15548
3.46e6,3.88e6,3.95e6,CG30001 (GeneID 246383),DRSC05191
3.59e6,4.03e6,4.10e6,CG7985 (GeneID 42178),DRSC14128
3.51e6,3.98e6,4.00e6,Octbeta3R (GeneID 3885573),DRSC15351
3.52e6,4.00e6,3.99e6,Octbeta3R (GeneID 3885573),DRSC16191
3.47e6,3.91e6,3.97e6,Octbeta3R (GeneID 3885573),DRSC21853
3.33e6,3.86e6,3.85e6,Octbeta3R (GeneID 3885573),DRSC21902
3.56e6,3.94e6,4.11e6,Octbeta3R (GeneID 3885573),DRSC22350
3.61e6,4.02e6,4.15e6,Glg1 (GeneID 40382),DRSC11815
3.45e6,3.81e6,3.97e6,Glg1 (GeneID 40382),DRSC11816
3.60e6,4.11e6,4.05e6,Glg1 (GeneID 40382),DRSC11817
3.55e6,4.08e6,3.95e6,CG9192 (GeneID 38134),DRSC08639
3.45e6,3.84e6,3.95e6,CG14657 (GeneID 40602),DRSC12219
3.39e6,3.78e6,3.87e6,CG14657 (GeneID 40602),DRSC12243
3.45e6,3.96e6,3.89e6,djl (GeneID 40839),DRSC12578
3.58e6,3.94e6,4.15e6,CG2127 (GeneID 35811),DRSC06821
3.62e6,3.99e6,4.21e6,Not11 (GeneID 37839),DRSC04204
3.42e6,3.99e6,3.81e6,Gr59a (GeneID 117485),DRSC21550
3.40e6,3.89e6,3.83e6,ec (GeneID 31339),DRSC17285
3.42e6,3.81e6,3.96e6,ec (GeneID 31339),DRSC17286
3.95e6,4.70e6,4.41e6,ec (GeneID 31339),DRSC18658
3.59e6,4.07e6,4.05e6,fw (GeneID 32162),DRSC20334
3.42e6,3.78e6,3.94e6,CG8745 (GeneID 39530),DRSC11033
3.36e6,3.81e6,3.76e6,CG8745 (GeneID 39530),DRSC11034
3.58e6,4.06e6,4.02e6,CG8745 (GeneID 39530),DRSC22741
